This is an account of results in patent publication US20190024099.

The test system of the data set is T1, Rci shufflon recombinase.
T1 sequence: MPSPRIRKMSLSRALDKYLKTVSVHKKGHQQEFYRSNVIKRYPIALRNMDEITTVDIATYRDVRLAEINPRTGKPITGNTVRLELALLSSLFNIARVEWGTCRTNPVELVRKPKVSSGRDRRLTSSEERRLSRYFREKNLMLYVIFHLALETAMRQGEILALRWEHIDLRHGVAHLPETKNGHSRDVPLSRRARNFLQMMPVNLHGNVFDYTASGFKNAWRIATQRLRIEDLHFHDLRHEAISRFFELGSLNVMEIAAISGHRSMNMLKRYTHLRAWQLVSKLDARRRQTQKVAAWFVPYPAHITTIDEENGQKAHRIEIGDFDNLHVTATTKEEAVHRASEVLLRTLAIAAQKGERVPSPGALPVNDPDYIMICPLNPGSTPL
The experiment in a line: activity in cells. Conditions: S. venezuelae, 1 kb inter-site, probe qPCR averaged over time points, high variability, protein in cells, only the site is given. Background: In qPCR the cycle at which signal appears reflects the starting amount.

The exact form of at least one protein or probe is not confirmed. Where a protein sequence is shown, tags need not be part of it.

Consider “GTGCCAATCCGGTACCTGG (double strand) [sfx recognition sequence b]”, for which the activity on this sequence (5 kb 24, 10 kb 26, SYBR method 1 kb 2) was determined as 12 % flipped. “GTGCCAATCCGGTACGTGG (double strand) [sfx recognition sequence a]”: for the setting “5 kb 28, 10 kb 55, SYBR method 1 kb 2”, the activity on this sequence was determined as 50 % flipped.

For “GTGCCAATCCGGTACTTGG (double strand) [sfx recognition sequence d]”, the activity on this sequence (5 kb 33, 10 kb 56, SYBR method 1 kb 0.01) is 78 % flipped. As to “GTGCCAATCCGGTCGGTGG (double strand) [sfx recognition sequence c]”, the activity on this sequence (5 kb 44, 10 kb 56, SYBR method 1 kb 33) is 33 % flipped.
